Experimental data reported in PubChem BioAssay AID1487 (National Center for Advancing Translational Sciences (NCATS), 2009).
Some of the results follow. Shown are side measurements of this screen, not its main read-out; they come without a call. Most of these compounds were active or inconclusive in the main read-out, so they are no random draw. Potencies come from curve fits of mixed quality, noted in brackets.

Test: qHTS Assay for Modulators of Lamin A Splicing
Conditions: HeLa LMNA splicing GFP/RFP minigene ratio, 48 h
Outline: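 S3 HeLa stable clones carrying a lamin A-EGFP splicing minigene plus DsRed2 were seeded at 600 cells/well in Opti-MEM with 2% FBS, pin-dosed and incubated 48 h at 37°C. Acumen cytometry (488 nm) gave the GFP/RFP total-intensity ratio.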

[1] = measured here: GFP splicing reporter channel
[2] = measured here: RFP viability control channel

SMILES	AC50 [1]	AC50 [2]
CCCCCC(=O)N/N=C/c1ccc(N(C)C)cc1	14.1 µM [falling, partial curve, poor fit]	
COC(=O)c1ccc(S(=O)(=O)c2ccc(C(=O)OC)s2)s1		0.891 µM [falling, full curve, poor fit]
CCc1cc(Br)ccc1N1C(=O)C2CC=CCC2C1=O (stereo unspecified)		15.8 µM [rising, single point]
COc1ccccc1N(CC(=O)NCCSc1ccc(Cl)cc1)S(C)(=O)=O		14.1 µM [falling, single point]
COc1ccc(-c2cn3nc(SCC(=O)Nc4ccccc4F)ccc3n2)cc1	0.891 µM [rising, partial curve]	7.94 µM [rising, partial curve, poor fit]
N#CCSc1nnc(-c2sc3ccccc3c2Cl)o1		17.8 µM [rising, partial curve]
Cc1ccc2nc(NC(=O)c3ccc(Cn4cc(Cl)cn4)o3)sc2c1		35.5 µM [rising, single point]
CCOC(=O)c1ccc(NC(=O)Cc2coc3cc4c(cc23)CCC4)cc1		31.6 µM [rising, single point]
O=c1ccc2cc(O)c(O)cc2o1	10 µM [falling, partial curve, poor fit]	11.2 µM [falling, partial curve]
C=C1C(=O)[C@@]23[C@H](O)C[C@@H]4C(C)(C)CC[C@H](O)[C@]4(C)[C@@H]2C[C@H](O)[C@@H]1[C@H]3O		10 µM [rising, partial curve]
O=[N+]([O-])c1ccc(N/N=C/c2cn(-c3ccccc3)nc2-c2ccccc2)cc1		15.8 µM [falling, single point]
CCc1ccc(N2C(=O)CN(Cc3ccc(OC)c(OC)c3)C2=S)cc1		11.2 µM [rising, partial curve, poor fit]
CCN(CC)c1ccc2cc(-c3nc(-c4ccccc4)no3)c(=O)oc2c1	5.62 µM [rising, single point]	
Cc1nc2c(-c3ccccc3)c(C)[nH]n2c(=O)c1Cl		15.8 µM [rising, single point]
Cc1ccc(N(CC(=O)Nc2cc(Cl)ccc2Oc2ccccc2)S(C)(=O)=O)cc1C	15.8 µM [rising, single point]	15.8 µM [rising, single point]
CCOc1ccc(S(=O)(=O)Nc2nc3ccccc3nc2Nc2ccc(N3CCOCC3)cc2)cc1		25.1 µM [rising, single point]
CCCCNC(=O)c1cnn2c(C)c(Cc3c(C)cc(C)cc3C)c(C)nc12	35.5 µM [falling, partial curve]	31.6 µM [falling, partial curve]

Fetched one by one from the list above:
SMILES	AC50 [1]	AC50 [2]
CCc1cc(Br)ccc1N1C(=O)C2CC=CCC2C1=O (stereo unspecified)		15.8 µM [rising, single point]
C=C1C(=O)[C@@]23[C@H](O)C[C@@H]4C(C)(C)CC[C@H](O)[C@]4(C)[C@@H]2C[C@H](O)[C@@H]1[C@H]3O		10 µM [rising, partial curve]
